From paper PMC7801388
Read-outs that look alike come from different tables or passages of the source. No constants are given. Whether binding was seen depends on the method and setting. In cells and extracts the contact can be indirect. Some entries that bind do so weakly or less than the wild type. For some of these results: Tags and fused reporters may be left off the sequences shown.

The chains behind the UniProt entries cited, without tags or fusion partners.
UniProt P49841: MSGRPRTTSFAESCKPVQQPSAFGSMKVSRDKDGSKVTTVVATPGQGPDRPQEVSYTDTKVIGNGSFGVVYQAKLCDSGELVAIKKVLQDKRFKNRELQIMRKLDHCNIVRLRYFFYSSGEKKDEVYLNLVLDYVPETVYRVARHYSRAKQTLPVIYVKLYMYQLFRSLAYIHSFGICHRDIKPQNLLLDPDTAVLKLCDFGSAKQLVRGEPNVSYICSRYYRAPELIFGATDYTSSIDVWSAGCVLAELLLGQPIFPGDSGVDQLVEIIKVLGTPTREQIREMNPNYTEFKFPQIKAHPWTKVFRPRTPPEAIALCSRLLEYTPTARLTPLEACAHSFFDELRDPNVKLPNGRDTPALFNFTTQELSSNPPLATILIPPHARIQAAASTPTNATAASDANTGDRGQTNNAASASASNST
UniProt Q9Y297: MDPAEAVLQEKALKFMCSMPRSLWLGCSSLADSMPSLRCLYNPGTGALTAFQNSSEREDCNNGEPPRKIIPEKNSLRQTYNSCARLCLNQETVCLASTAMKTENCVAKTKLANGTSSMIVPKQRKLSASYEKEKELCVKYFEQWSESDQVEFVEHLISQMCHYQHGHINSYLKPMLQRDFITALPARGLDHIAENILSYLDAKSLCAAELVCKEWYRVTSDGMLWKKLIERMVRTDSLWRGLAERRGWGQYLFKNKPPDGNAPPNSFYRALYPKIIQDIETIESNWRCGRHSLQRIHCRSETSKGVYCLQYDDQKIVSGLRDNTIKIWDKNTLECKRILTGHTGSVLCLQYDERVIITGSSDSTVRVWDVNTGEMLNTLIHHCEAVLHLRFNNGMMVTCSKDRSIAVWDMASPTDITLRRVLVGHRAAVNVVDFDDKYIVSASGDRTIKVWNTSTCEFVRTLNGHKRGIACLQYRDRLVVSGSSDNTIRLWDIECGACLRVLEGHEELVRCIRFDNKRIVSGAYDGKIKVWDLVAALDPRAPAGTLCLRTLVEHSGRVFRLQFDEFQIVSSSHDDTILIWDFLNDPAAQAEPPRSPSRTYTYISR
UniProt P35222: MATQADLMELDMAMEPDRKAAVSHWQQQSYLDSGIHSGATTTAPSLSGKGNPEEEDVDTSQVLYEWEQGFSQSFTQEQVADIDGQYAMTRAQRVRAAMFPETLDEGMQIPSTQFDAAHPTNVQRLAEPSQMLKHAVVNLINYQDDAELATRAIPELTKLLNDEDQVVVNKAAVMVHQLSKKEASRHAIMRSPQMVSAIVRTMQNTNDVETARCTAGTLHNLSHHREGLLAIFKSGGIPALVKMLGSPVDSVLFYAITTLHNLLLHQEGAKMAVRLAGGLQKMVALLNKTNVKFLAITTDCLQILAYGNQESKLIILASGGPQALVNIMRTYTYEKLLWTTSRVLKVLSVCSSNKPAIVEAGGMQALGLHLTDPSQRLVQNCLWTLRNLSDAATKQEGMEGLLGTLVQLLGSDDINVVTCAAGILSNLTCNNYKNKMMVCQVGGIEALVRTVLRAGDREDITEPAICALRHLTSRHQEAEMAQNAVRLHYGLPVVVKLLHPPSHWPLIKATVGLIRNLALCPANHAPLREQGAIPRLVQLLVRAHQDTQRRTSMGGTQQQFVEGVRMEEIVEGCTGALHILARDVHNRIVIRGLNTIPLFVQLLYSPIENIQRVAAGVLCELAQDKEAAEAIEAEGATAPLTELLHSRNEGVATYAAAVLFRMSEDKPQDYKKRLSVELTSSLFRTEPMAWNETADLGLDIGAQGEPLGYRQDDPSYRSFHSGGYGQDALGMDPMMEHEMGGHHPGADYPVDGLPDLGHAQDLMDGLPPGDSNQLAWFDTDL
UniProt Q9UNE7: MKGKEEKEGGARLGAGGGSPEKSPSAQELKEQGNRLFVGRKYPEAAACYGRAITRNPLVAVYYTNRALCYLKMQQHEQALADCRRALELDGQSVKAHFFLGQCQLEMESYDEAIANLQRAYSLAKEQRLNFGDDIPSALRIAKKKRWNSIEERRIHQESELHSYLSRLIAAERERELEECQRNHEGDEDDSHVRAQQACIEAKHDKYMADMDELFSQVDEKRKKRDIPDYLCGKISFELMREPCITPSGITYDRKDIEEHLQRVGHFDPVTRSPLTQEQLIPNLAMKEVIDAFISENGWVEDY
UniProt Q9UJU2: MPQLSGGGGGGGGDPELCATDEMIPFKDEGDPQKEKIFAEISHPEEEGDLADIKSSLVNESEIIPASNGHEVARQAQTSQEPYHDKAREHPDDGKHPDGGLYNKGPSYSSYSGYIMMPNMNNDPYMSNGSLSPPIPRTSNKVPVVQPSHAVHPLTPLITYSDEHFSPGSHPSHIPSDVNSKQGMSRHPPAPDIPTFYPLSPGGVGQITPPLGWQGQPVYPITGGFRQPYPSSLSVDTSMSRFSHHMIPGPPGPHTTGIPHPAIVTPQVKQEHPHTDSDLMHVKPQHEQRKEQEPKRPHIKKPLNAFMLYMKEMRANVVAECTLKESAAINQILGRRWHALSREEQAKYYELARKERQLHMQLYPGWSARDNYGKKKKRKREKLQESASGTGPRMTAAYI

Legend:
[1] = target: T1, Flag-Arc (activity-regulated cytoskeleton-associated protein) (human (A549 cDNA)) (UniProt Q7LC44); assay: co-IP; HEK293T cells co-transfected with Flag- and HA-tagged plasmids; whole-cell lysates in low-salt lysis buffer (50 mM Hepes pH 7.5, 150 mM NaCl, 1% Triton X-100) incubated with anti-Flag agarose overnight at 4 °C, blotted with anti-HA; in Fig. 5 also with Myc-CHIP or Myc-CHIP T246M, CHIP siRNA, Wnt3a (40 ng/ml, 1 h)
T1 sequence: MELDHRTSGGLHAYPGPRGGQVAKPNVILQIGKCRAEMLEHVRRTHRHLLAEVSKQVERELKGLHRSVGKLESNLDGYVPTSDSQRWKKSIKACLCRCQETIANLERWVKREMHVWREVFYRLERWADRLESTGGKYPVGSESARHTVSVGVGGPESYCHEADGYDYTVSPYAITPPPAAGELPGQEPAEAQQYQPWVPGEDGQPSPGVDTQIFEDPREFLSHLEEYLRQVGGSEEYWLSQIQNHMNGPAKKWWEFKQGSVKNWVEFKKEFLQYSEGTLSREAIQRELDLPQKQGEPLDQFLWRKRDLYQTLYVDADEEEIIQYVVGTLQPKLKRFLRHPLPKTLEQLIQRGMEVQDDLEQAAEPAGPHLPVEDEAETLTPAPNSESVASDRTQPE

[2] = target: Flag-GSK3β (glycogen synthase kinase 3) (human (A549 cDNA)) (UniProt P49841); assay: as above
[3] = target: Flag-β-TrCP (human (A549 cDNA)) (UniProt Q9Y297); assay: as above
[4] = target: Flag-β-catenin (human (A549 cDNA)) (UniProt P35222); assay: as above
[5] = target: β-catenin (endogenous) (human (endogenous in SHSY5Y)) (UniProt P35222); assay: co-IP; endogenous proteins of SHSY5Y cells; lysate incubated with indicated antibodies overnight at 4 °C, Dynabeads protein G 2 h; cells transfected with CHIP, CHIP T246M or CHIP siRNA
[6] = target: Flag-CHIP (human (A549 cDNA)) (UniProt Q9UNE7); assay: co-IP; HEK293T cells co-transfected with Flag- and HA-tagged plasmids; whole-cell lysates in low-salt lysis buffer (50 mM Hepes pH 7.5, 150 mM NaCl, 1% Triton X-100) incubated with anti-Flag agarose overnight at 4 °C, blotted with anti-HA; in Fig. 5 also with Myc-CHIP or Myc-CHIP T246M, CHIP siRNA, Wnt3a (40 ng/ml, 1 h)
[7] = target: Flag-GSK3β (glycogen synthase kinase 3) (human (A549 cDNA)) (UniProt P49841); assay: as above; remark: listed apart in the source

With “HA-CHIP (carboxyl terminus of Hsc70-interacting protein) (from UniProt Q9UNE7 1-303) (enzyme)” the binding [1] was “binds”, the binding [2] was “binds” and the binding [3] was “binds weakly”. For the same molecule, the binding [4] was “binds weakly”.

For “LEF1 (endogenous) (from UniProt Q9UJU2 1-399)”, the binding [5] was “binds”.

B1: HA-Arc (protein, UniProt Q7LC44 1-396)
chain: T1 sequence
B1 was tested, and the binding [6] was “binds” and the binding [7] was “binds”.
